Results deposited as PubChem BioAssay AID686943 (Drosophila RNAi Screening Center, 2013).

Aim: 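Fly genes whose loss alters ERK activation after insulin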 (primary screen)
System: Drosophila S2R+ haemocyte-like cells expressing YFP-tagged ERK (Rolled)
Reagents: long dsRNA against Drosophila genes
Challenge: insulin stimulation versus unstimulated cells; dose and duration not given
Measurement: 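Per-plate z-scores of phospho-ERK immunostaining normalised to YFP-tagged ERK, measured with and without insulin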
Scale: replicate 1, z-score of dpERK with insulin: higher = more active ERK per ERK-YFP after insulin
In all, the deposit lists about 23,000 reagents; this is a random part of those with a known target gene and a result. 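Extra replicates exist only for a retested subset of genes; insulin dose and duration not given; both raised and lowered dpERK matter.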 Further read-outs or replicates are left out here. Not given: the amount of reagent, the time to read-out.

After knock-down of CG18747 [DRSC15384], the screen gave replicate 1, z-score of dpERK with insulin 0.02. hrg [DRSC07502] scored replicate 1, z-score of dpERK with insulin 0.13. CG4707 [DRSC04483] gave replicate 1, z-score of dpERK with insulin -0.81. For Gel [DRSC12350] the deposit lists replicate 1, z-score of dpERK with insulin 0.33. After knock-down of CG11350 [DRSC08181] the results were replicate 1, z-score of dpERK with insulin 0.27. With knock-down of Uba2 [DRSC11311], the screen gave replicate 1, z-score of dpERK with insulin 0.09.

Or23a [DRSC00767] scored replicate 1, z-score of dpERK with insulin -0.77. Against Pmvk [DRSC02032], the entry reads replicate 1, z-score of dpERK with insulin 0.61. Silencing of CG10474 [DRSC05993] came out at: replicate 1, z-score of dpERK with insulin 1.49. Depletion of BEAF-32 [DRSC05927] gave: replicate 1, z-score of dpERK with insulin 0.57. Coq5 [DRSC19849] scored replicate 1, z-score of dpERK with insulin 1.3. Depletion of Coq5 [DRSC21371] resulted in: replicate 1, z-score of dpERK with insulin 0.93.
